Experimental data as given in the supplement of paper PMC8728848.
This is one part of the list.

Legend:
Test in all cases: glycan array binding signal (z-score within array); higher = stronger binding
Conditions in all cases: glycan notation: IUPAC condensed, linker removed
[1] = target: Neu5Ac(a2-6)Gal
How it was run: (§1)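 The binding signal is a Z-score computed within each array and averaged over linkers. Arrays of the same protein sequence at different concentrations or buffers were also averaged together. Data originate from 3228 arrays in the Consortium for Functional Glycomics database, kept only where the protein sequence was available.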

[2] = target: Neu5Ac(a2-6)Gal(b1-3)GlcNAc(b1-3)[Gal(b1-4)GlcNAc(b1-6)]Gal(b1-4)Glc
How it was run: as §1

[3] = target: Neu5Ac(a2-6)Gal(b1-4)Glc
How it was run: as §1

[4] = target: Neu5Ac(a2-6)Gal(b1-4)GlcNAc
How it was run: as §1

[5] = target: Neu5Ac(a2-6)Gal(b1-4)GlcNAc(b1-2)Man
How it was run: as §1

[6] = target: Neu5Ac(a2-6)Gal(b1-4)GlcNAc(b1-2)Man(a1-3)Man(b1-4)GlcNAc(b1-4)GlcNAc
How it was run: as §1

[7] = target: Neu5Ac(a2-6)Gal(b1-4)GlcNAc(b1-2)Man(a1-3)[Gal(b1-4)GlcNAc(b1-2)Man(a1-6)]Man(b1-4)GlcNAc(b1-4)GlcNAc
How it was run: as §1

[8] = target: Neu5Ac(a2-6)Gal(b1-4)GlcNAc(b1-2)Man(a1-3)[GlcNAc(b1-2)Man(a1-6)]Man(b1-4)GlcNAc(b1-4)GlcNAc
How it was run: as §1

[9] = target: Neu5Ac(a2-6)Gal(b1-4)GlcNAc(b1-2)Man(a1-3)[GlcNAc(b1-2)Man(b1-4)GlcNAc(b1-2)Man(a1-6)]Man(b1-4)GlcNAc(b1-4)GlcNAc
How it was run: as §1

[10] = target: Neu5Ac(a2-6)Gal(b1-4)GlcNAc(b1-2)Man(a1-3)[GlcNAc(b1-4)][Neu5Ac(a2-6)Gal(b1-4)GlcNAc(b1-2)Man(a1-6)]Man(b1-4)GlcNAc(b1-4)GlcNAc
How it was run: as §1

[11] = target: Neu5Ac(a2-6)Gal(b1-4)GlcNAc(b1-2)Man(a1-3)[Man(a1-6)]Man(b1-4)GlcNAc(b1-4)GlcNAc
How it was run: as §1

[12] = target: Neu5Ac(a2-6)Gal(b1-4)GlcNAc(b1-2)Man(a1-3)[Neu5Ac(a2-3)Gal(b1-4)GlcNAc(b1-2)Man(a1-6)]Man(b1-4)GlcNAc(b1-4)GlcNAc
How it was run: as §1

[13] = target: Neu5Ac(a2-6)Gal(b1-4)GlcNAc(b1-2)Man(a1-3)[Neu5Ac(a2-6)Gal(b1-4)GlcNAc(b1-2)Man(a1-6)]Man(b1-4)GlcNAc(b1-4)GlcNAc
How it was run: as §1

[14] = target: Neu5Ac(a2-6)Gal(b1-4)GlcNAc(b1-2)Man(a1-3)[Neu5Ac(a2-6)Gal(b1-4)GlcNAc(b1-2)Man(a1-6)]Man(b1-4)GlcNAc(b1-4)[Fuc(a1-6)]GlcNAc
How it was run: as §1

[15] = target: Neu5Ac(a2-6)Gal(b1-4)GlcNAc(b1-2)Man(a1-6)Man(b1-4)GlcNAc(b1-4)GlcNAc
How it was run: as §1

[16] = target: Neu5Ac(a2-6)Gal(b1-4)GlcNAc(b1-2)Man(a1-6)[Gal(b1-4)GlcNAc(b1-2)Man(a1-3)]Man(b1-4)GlcNAc(b1-4)GlcNAc
How it was run: as §1

[17] = target: Neu5Ac(a2-6)Gal(b1-4)GlcNAc(b1-2)Man(a1-6)[GlcNAc(b1-2)Man(a1-3)]Man(b1-4)GlcNAc(b1-4)GlcNAc
How it was run: as §1

[18] = target: Neu5Ac(a2-6)Gal(b1-4)GlcNAc(b1-2)Man(a1-6)[Man(a1-3)]Man(b1-4)GlcNAc(b1-4)GlcNAc
How it was run: as §1

[19] = target: Neu5Ac(a2-6)Gal(b1-4)GlcNAc(b1-2)[Neu5Ac(a2-6)Gal(b1-4)GlcNAc(b1-4)]Man(a1-3)[GlcNAc(b1-4)][Neu5Ac(a2-6)Gal(b1-4)GlcNAc(b1-2)[Neu5Ac(a2-6)Gal(b1-4)GlcNAc(b1-6)]Man(a1-6)]Man(b1-4)GlcNAc(b1-4)GlcNAc
How it was run: as §1

[20] = target: Neu5Ac(a2-6)Gal(b1-4)GlcNAc(b1-2)[Neu5Ac(a2-6)Gal(b1-4)GlcNAc(b1-4)]Man(a1-3)[GlcNAc(b1-4)][Neu5Ac(a2-6)Gal(b1-4)GlcNAc(b1-4)Man(a1-6)]Man(b1-4)GlcNAc(b1-4)GlcNAc
How it was run: as §1

[21] = target: Neu5Ac(a2-6)Gal(b1-4)GlcNAc(b1-2)[Neu5Ac(a2-6)Gal(b1-4)GlcNAc(b1-6)]Man(a1-6)[Neu5Ac(a2-6)Gal(b1-4)GlcNAc(b1-2)Man(a1-3)][GlcNAc(b1-4)]Man(b1-4)GlcNAc(b1-4)GlcNAc
How it was run: as §1

[22] = target: Neu5Ac(a2-6)Gal(b1-4)GlcNAc(b1-3)Gal(b1-3)GlcNAc
How it was run: as §1

[23] = target: Neu5Ac(a2-6)Gal(b1-4)GlcNAc(b1-3)Gal(b1-4)GlcNAc
How it was run: as §1

[24] = target: Neu5Ac(a2-6)Gal(b1-4)GlcNAc(b1-3)Gal(b1-4)GlcNAc(b1-2)Man(a1-3)[Neu5Ac(a2-6)Gal(b1-4)GlcNAc(b1-3)Gal(b1-4)GlcNAc(b1-2)Man(a1-6)]GalNAc
How it was run: as §1

[25] = target: Neu5Ac(a2-6)Gal(b1-4)GlcNAc(b1-3)Gal(b1-4)GlcNAc(b1-3)Gal(b1-4)GlcNAc
How it was run: as §1

[26] = target: Neu5Ac(a2-6)Gal(b1-4)GlcNAc(b1-3)Gal(b1-4)GlcNAc(b1-3)Gal(b1-4)GlcNAc(b1-2)Man(a1-3)[Neu5Ac(a2-6)Gal(b1-4)GlcNAc(b1-3)Gal(b1-4)GlcNAc(b1-3)Gal(b1-4)GlcNAc(b1-2)Man(a1-6)]GalNAc
How it was run: as §1

[27] = target: Neu5Ac(a2-6)Gal(b1-4)GlcNAc(b1-3)Gal(b1-4)GlcNAc(b1-3)GalNAc
How it was run: as §1

[28] = target: Neu5Ac(a2-6)Gal(b1-4)GlcNAc(b1-3)Gal(b1-4)GlcNAc(b1-3)[Neu5Ac(a2-6)Gal(b1-4)GlcNAc(b1-3)Gal(b1-4)GlcNAc(b1-6)]GalNAc
How it was run: as §1

[29] = target: Neu5Ac(a2-6)Gal(b1-4)GlcNAc(b1-3)Gal(b1-4)GlcNAc(b1-6)[Gal(b1-3)]GalNAc
How it was run: as §1

[30] = target: Neu5Ac(a2-6)Gal(b1-4)GlcNAc(b1-3)Gal(b1-4)[Fuc(a1-3)]GlcNAc(b1-3)Gal(b1-4)[Fuc(a1-3)]GlcNAc
How it was run: as §1

[31] = target: Neu5Ac(a2-6)Gal(b1-4)GlcNAc(b1-3)GalNAc
How it was run: as §1

[32] = target: Neu5Ac(a2-6)Gal(b1-4)GlcNAc(b1-3)[Neu5Ac(a2-6)Gal(b1-4)GlcNAc(b1-6)]GalNAc
How it was run: as §1

[33] = target: Neu5Ac(a2-6)Gal(b1-4)GlcNAc(b1-6)GalNAc
How it was run: as §1

[34] = target: Neu5Ac(a2-6)Gal(b1-4)GlcNAc(b1-6)[Gal(b1-3)GlcNAc(b1-3)]Gal(b1-4)Glc
How it was run: as §1

[35] = target: Neu5Ac(a2-6)Gal(b1-4)GlcNAc(b1-6)[Gal(b1-3)]GalNAc
How it was run: as §1

[36] = target: Neu5Ac(a2-6)Gal(b1-4)GlcNAc6S
How it was run: as §1

B1: MFG-E8 (Mus musculus), P21956 (protein)
chain: MQVSRVLAALCGMLLCASGLFAASGDFCDSSLCLNGGTCLTGQDNDIYCLCPEGFTGLVCNETERGPCSPNPCYNDAKCLVTLDTQRGDIFTEYICQCPVGYSGIHCETETNYYNLDGEYMFTTAVPNTAVPTPAPTPDLSNNLASRCSTQLGMEGGAIADSQISASSVYMGFMGLQRWGPELARLYRTGIVNAWTASNYDSKPWIQVNLLRKMRVSGVMTQGASRAGRAEYLKTFKVAYSLDGRKFEFIQDESGGDKEFLGNLDNNSLKVNMFNPTLEAQYIKLYPVSCHRGCTLRFELLGCELHGCSEPLGLKNNTIPDSQMSASSSYKTWNLRAFGWYPHLGRLDNQGKINAWTAQSNSAKEWLQVDLGTQRQVTGIITQGARDFGHIQYVASYKVAHSDDGVQWTVYEEQGSSKVFQGNLDNNSHKKNIFEKPFMARYVRVLPVSWHNRITLRLELLGC
In the case of B1, the “glycan array binding signal (z-score)” value [1] is reported as 0.316, the “glycan array binding signal (z-score)” value [2] is reported as -0.184 and the “glycan array binding signal (z-score)” value [3] is reported as -0.53. The “glycan array binding signal (z-score)” value [4] was 0.663, the “glycan array binding signal (z-score)” value [5] was -0.354 and the “glycan array binding signal (z-score)” value [6] was 0.146. For the same binder, the “glycan array binding signal (z-score)” value [7] was -0.261, the “glycan array binding signal (z-score)” value [8] was 1.08 and the “glycan array binding signal (z-score)” value [9] was -1.22. For the same binder, the “glycan array binding signal (z-score)” value [10] was 0.277, the “glycan array binding signal (z-score)” value [11] was -0.747 and the “glycan array binding signal (z-score)” value [12] was -0.667. The “glycan array binding signal (z-score)” value [13] was -0.202, the “glycan array binding signal (z-score)” value [14] was -0.05 and the “glycan array binding signal (z-score)” value [15] was 0.651. For the same binder, the “glycan array binding signal (z-score)” value [16] was -0.618, the “glycan array binding signal (z-score)” value [17] was -0.719 and the “glycan array binding signal (z-score)” value [18] was 0.477. For the same binder, the “glycan array binding signal (z-score)” value [19] was 0.017, the “glycan array binding signal (z-score)” value [20] was -0.095 and the “glycan array binding signal (z-score)” value [21] was -0.262. The “glycan array binding signal (z-score)” value [22] was 0.935, the “glycan array binding signal (z-score)” value [23] was -0.22 and the “glycan array binding signal (z-score)” value [24] was -0.21. The “glycan array binding signal (z-score)” value [25] was -0.79, the “glycan array binding signal (z-score)” value [26] was 1.52 and the “glycan array binding signal (z-score)” value [27] was 0.032. For the same binder, the “glycan array binding signal (z-score)” value [28] was -0.26, the “glycan array binding signal (z-score)” value [29] was -0.004 and the “glycan array binding signal (z-score)” value [30] was -0.437. For the same binder, the “glycan array binding signal (z-score)” value [31] was 0.075, the “glycan array binding signal (z-score)” value [32] was -0.731 and the “glycan array binding signal (z-score)” value [33] was -0.148. The “glycan array binding signal (z-score)” value [34] was 0.559, the “glycan array binding signal (z-score)” value [35] was 0.04 and the “glycan array binding signal (z-score)” value [36] was 0.831.
